{
  "sequences": {"note": "Sequences of proteins named here, by UniProt entry; tags and fusion partners are left off. Residues count along the entry.", "UniProt Q06124, 1-525 limits assumed": "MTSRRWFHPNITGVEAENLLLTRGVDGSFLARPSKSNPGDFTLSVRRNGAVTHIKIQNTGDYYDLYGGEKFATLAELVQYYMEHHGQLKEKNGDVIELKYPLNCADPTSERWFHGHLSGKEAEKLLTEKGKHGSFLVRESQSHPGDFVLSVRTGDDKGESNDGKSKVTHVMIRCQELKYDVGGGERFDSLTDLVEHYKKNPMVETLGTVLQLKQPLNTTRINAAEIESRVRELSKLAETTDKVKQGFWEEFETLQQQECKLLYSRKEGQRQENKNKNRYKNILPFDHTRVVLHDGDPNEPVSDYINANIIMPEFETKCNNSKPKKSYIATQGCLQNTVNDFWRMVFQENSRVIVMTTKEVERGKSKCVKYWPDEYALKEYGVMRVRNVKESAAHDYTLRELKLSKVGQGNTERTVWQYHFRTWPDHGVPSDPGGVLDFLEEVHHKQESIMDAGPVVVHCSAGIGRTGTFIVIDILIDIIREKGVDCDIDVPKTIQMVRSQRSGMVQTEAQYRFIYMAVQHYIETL"},
  "source": "patent US20240239799A1",
  "about": "“(S)-1-(5-((PYRIDIN-3-YL)THIO)PYRAZIN-2-YL)-4'H,6'H-SPIRO[PIPERIDINE-4,5'-PYRROLO [1,2-B]PYRAZOL]-4'-AMINE DERIVATIVES AND SIMILAR COMPOUNDS AS SHP2 INHIBITORS FOR THE TREATMENT OF E.G. CANCER” (C.N.C.C.S. S.C.A.R.L. COLLEZIONE NAZIONALE DEI COMPOSTI …, priority 2021, published 2024)",
  "key": {"[1]": {"target": "SHP-2 enzyme (Met1-Leu525) (Homo sapiens, UniProt Q06124)", "assay": "SHP2 inhibition enzymatic assay (DiFMUP substrate, IRS1 peptide activation)", "settings": "read-out: SHP2wt - IC50, 0.5 nM SHP-2, 500 nM IRS1 peptide, 75 μM DiFMUP", "description": "The assay was performed as described in YP Chen et al, Nature (535)2016. Assay volume of 20 μL/well was assembled in 384 well black polystyrene low-binding microplates (Greiner), using the following buffer: 60 mM HEPES pH 7.2, 75 mM NaCl, 75 mM KCl, 1 mM EDTA pH 8, 0.05% tween-20, 5 mM DTT. The SHP-2 enzyme (synthetized by Origene, Met1-Leu525, cat #TP750155) was used at a final concentration of 0.5 nM. The enzyme was activated by 500 nM IRS1 peptide (sequence: H2N-LN(pY)IDLDLV(dPEG8)LST(pY)ASINFQK-amide SEQ ID No. 1) and incubated with 75 μM DiFMUP (Sigma) as substrate.\nBriefly, DMSO serially diluted testing compounds were transferred to the bottom of the assay plate. SHP2 was then added together with the IRS1 peptide 30 min post incubation, the DiFMUP substrate was added to the reaction and incubated 30 min at rt. Finally 5 μL of 160 μM bpV (Potassium bisperoxo[1,10-phenanthroline]oxovanadate[V], Sigma) were added to stop and quench the reaction. The fluorescence was detected by a microplate reader (Envision, PerkinElmer) according to the DiFMUP excitation and emission wavelength. The lower the fluorescence the higher the SHP2 inhibition.\nThe activity of each compound dilution was calculated as percentage of inhibition between vehicle (DMSO, 0% inhibition) and no enzyme (100% inhibition). The percentage inhibition is fitted against the compound dilutions with a four-parameter logistic regression. The inflection point (i.e. the concentration at which half-maximal inhibition is achieved) is the IC50.\nLegend: A indicates IC50 less or equal to 0.05 μM; B indicates IC50 greater than 0.05 μM and lower or equal to 0.3 μM; C indicates IC50 higher than 0.3 μM."}, "[2]": {"target": "SHP2 (Avi-G4SG4S-PTPN11(1-525)) (Homo sapiens, UniProt Q06124)", "assay": "Binding kinetic assay by surface plasmon resonance (SPR)", "settings": "Biacore T200, single cycle kinetic, 1:1 Langmuir binding model, tested form: TFA"}, "[3]": {"test_system": "phospho-ERK1/2 (Thr202/Tyr204) in KYSE-520 cells", "assay": "Phospho-ERK cellular assay (TR-FRET)", "description": "ERK phosphorylation was detected using the “Advanced phospho-ERK1/2 (Thr202/Tyr204)” TR-FRET kit (Cisbio, Cat #64AERPEG/H), following the manufacturer reagents and instructions.\nBriefly, 20.000/well KYSE-520 cells (DSMZ ACC 371) were plated in 6 μL RPMI-1640 (Invitrogen) growth medium, into 384 white low-volume high base TC microplates (Greiner). After an overnight incubation, cells were treated with DMSO serial diluted compounds and incubated for 2 h at 37° C. After incubation, 2 μL/well of 4X Lysis Buffer (Cisbio 64KL1FDF), were added and incubated with cells for 30 min on gentle shaking. Finally, lysates were added with 2 μL/well of Eu cryptate (donor) and D2 (acceptor) conjugated antibodies (as provided by the Cisbio kit #64AERPEG/H) diluted 1:100 in Detection Buffer (as provided by the Cisbio kit #64AERPEG/H). Plates were then sealed and incubated at rt in the dark. After an overnight incubation, the TR-FRET signal was detected on a suitable reader (Envision, PerkinElmer). The lower the TR-FRET signal the higher the higher the SHP2 inhibition in cells.\nThe activity of each compound dilution was calculated as percentage between vehicle DMSO treated cells and no cells, 0% inhibition and 100% inhibition respectively. The percentage activity is fitted against the compound dilutions with a four-parameter logistic regression. The inflection point (i.e. the concentration at which half-maximal inhibition is achieved) is the IC50.\nLegend: “+” indicates IC50 equal or higher than 0.5 μM; “++” indicates IC50 less than 0.5 μM and higher or equal to 0.1p M; “+++” indicates IC50 less than 0.1p M."}, "[4]": {"settings": "read-out: pERK IC50, 2 h at 37° C., tested form: TFA"}},
  "note": "Where two headings read alike, the source gives them in different places. The structures given here were assigned with low confidence; some may be wrong.",
  "data": [
    {"smiles": "Nc1nccc(Sc2cnc(N3CCC4(CC3)Cn3nccc3[C@H]4N)n3ccnc23)c1Cl", "values": [
      {"measurement": "IC50", "setting": "[1]; tested form: TFA", "result": "< 50", "unit": "nM"},
      {"measurement": "k off SPR", "setting": "[2]; triplicate", "result": 0.000554, "unit": "s⁻¹"},
      {"measurement": "Residence time 1/koff SPR", "setting": "[2]", "result": 1805, "unit": "s"},
      {"measurement": "IC50", "setting": "[3]; [4]", "result": "< 100", "unit": "nM"}
    ]},
    {"smiles": "NC(=O)c1cn2ccc(Sc3cnc(N4CCC5(CC4)Cn4nccc4[C@H]5N)cn3)c(Cl)c2n1", "values": [
      {"measurement": "IC50", "setting": "[1]; tested form: TFA", "result": "< 50", "unit": "nM"},
      {"measurement": "IC50", "setting": "[3]; [4]", "result": "< 100", "unit": "nM"}
    ]},
    {"smiles": "N[C@@H]1c2ccnn2CC12CCN(c1cnc(Sc3ccn4cc(NC(=O)C(F)(F)F)nc4c3Cl)cn1)CC2", "values": [
      {"measurement": "IC50", "setting": "[1]; tested form: TFA", "result": "< 50", "unit": "nM"},
      {"measurement": "IC50", "setting": "[3]; [4]", "result": "< 100", "unit": "nM"}
    ]},
    {"smiles": "CC(=O)N1CC(F)(F)c2c(Sc3ncc(N4CCC5(CC4)Cn4nccc4[C@H]5N)nc3N)cccc21", "values": [
      {"measurement": "IC50", "setting": "[1]; tested form: trifluoroacetate", "result": "< 50", "unit": "nM"},
      {"measurement": "IC50", "setting": "[3]; read-out: pERK IC50, 2 h at 37° C., tested form: trifluoroacetate", "result": "< 100", "unit": "nM"}
    ]}
  ]
}
